Experimental data reported in the supplement of paper PMC12067093, “Discovery and optimisation of a covalent ligand for TRIM25 and its application to targeted protein ubiquitination” (Chemical Science, 2025).
The list shows a part of the results.

Chains of the proteins cited; added tags and fusions are not shown. Lines headed by an entry give the natural chain unless they say otherwise; changes in a name come on top.
UniProt Q07954: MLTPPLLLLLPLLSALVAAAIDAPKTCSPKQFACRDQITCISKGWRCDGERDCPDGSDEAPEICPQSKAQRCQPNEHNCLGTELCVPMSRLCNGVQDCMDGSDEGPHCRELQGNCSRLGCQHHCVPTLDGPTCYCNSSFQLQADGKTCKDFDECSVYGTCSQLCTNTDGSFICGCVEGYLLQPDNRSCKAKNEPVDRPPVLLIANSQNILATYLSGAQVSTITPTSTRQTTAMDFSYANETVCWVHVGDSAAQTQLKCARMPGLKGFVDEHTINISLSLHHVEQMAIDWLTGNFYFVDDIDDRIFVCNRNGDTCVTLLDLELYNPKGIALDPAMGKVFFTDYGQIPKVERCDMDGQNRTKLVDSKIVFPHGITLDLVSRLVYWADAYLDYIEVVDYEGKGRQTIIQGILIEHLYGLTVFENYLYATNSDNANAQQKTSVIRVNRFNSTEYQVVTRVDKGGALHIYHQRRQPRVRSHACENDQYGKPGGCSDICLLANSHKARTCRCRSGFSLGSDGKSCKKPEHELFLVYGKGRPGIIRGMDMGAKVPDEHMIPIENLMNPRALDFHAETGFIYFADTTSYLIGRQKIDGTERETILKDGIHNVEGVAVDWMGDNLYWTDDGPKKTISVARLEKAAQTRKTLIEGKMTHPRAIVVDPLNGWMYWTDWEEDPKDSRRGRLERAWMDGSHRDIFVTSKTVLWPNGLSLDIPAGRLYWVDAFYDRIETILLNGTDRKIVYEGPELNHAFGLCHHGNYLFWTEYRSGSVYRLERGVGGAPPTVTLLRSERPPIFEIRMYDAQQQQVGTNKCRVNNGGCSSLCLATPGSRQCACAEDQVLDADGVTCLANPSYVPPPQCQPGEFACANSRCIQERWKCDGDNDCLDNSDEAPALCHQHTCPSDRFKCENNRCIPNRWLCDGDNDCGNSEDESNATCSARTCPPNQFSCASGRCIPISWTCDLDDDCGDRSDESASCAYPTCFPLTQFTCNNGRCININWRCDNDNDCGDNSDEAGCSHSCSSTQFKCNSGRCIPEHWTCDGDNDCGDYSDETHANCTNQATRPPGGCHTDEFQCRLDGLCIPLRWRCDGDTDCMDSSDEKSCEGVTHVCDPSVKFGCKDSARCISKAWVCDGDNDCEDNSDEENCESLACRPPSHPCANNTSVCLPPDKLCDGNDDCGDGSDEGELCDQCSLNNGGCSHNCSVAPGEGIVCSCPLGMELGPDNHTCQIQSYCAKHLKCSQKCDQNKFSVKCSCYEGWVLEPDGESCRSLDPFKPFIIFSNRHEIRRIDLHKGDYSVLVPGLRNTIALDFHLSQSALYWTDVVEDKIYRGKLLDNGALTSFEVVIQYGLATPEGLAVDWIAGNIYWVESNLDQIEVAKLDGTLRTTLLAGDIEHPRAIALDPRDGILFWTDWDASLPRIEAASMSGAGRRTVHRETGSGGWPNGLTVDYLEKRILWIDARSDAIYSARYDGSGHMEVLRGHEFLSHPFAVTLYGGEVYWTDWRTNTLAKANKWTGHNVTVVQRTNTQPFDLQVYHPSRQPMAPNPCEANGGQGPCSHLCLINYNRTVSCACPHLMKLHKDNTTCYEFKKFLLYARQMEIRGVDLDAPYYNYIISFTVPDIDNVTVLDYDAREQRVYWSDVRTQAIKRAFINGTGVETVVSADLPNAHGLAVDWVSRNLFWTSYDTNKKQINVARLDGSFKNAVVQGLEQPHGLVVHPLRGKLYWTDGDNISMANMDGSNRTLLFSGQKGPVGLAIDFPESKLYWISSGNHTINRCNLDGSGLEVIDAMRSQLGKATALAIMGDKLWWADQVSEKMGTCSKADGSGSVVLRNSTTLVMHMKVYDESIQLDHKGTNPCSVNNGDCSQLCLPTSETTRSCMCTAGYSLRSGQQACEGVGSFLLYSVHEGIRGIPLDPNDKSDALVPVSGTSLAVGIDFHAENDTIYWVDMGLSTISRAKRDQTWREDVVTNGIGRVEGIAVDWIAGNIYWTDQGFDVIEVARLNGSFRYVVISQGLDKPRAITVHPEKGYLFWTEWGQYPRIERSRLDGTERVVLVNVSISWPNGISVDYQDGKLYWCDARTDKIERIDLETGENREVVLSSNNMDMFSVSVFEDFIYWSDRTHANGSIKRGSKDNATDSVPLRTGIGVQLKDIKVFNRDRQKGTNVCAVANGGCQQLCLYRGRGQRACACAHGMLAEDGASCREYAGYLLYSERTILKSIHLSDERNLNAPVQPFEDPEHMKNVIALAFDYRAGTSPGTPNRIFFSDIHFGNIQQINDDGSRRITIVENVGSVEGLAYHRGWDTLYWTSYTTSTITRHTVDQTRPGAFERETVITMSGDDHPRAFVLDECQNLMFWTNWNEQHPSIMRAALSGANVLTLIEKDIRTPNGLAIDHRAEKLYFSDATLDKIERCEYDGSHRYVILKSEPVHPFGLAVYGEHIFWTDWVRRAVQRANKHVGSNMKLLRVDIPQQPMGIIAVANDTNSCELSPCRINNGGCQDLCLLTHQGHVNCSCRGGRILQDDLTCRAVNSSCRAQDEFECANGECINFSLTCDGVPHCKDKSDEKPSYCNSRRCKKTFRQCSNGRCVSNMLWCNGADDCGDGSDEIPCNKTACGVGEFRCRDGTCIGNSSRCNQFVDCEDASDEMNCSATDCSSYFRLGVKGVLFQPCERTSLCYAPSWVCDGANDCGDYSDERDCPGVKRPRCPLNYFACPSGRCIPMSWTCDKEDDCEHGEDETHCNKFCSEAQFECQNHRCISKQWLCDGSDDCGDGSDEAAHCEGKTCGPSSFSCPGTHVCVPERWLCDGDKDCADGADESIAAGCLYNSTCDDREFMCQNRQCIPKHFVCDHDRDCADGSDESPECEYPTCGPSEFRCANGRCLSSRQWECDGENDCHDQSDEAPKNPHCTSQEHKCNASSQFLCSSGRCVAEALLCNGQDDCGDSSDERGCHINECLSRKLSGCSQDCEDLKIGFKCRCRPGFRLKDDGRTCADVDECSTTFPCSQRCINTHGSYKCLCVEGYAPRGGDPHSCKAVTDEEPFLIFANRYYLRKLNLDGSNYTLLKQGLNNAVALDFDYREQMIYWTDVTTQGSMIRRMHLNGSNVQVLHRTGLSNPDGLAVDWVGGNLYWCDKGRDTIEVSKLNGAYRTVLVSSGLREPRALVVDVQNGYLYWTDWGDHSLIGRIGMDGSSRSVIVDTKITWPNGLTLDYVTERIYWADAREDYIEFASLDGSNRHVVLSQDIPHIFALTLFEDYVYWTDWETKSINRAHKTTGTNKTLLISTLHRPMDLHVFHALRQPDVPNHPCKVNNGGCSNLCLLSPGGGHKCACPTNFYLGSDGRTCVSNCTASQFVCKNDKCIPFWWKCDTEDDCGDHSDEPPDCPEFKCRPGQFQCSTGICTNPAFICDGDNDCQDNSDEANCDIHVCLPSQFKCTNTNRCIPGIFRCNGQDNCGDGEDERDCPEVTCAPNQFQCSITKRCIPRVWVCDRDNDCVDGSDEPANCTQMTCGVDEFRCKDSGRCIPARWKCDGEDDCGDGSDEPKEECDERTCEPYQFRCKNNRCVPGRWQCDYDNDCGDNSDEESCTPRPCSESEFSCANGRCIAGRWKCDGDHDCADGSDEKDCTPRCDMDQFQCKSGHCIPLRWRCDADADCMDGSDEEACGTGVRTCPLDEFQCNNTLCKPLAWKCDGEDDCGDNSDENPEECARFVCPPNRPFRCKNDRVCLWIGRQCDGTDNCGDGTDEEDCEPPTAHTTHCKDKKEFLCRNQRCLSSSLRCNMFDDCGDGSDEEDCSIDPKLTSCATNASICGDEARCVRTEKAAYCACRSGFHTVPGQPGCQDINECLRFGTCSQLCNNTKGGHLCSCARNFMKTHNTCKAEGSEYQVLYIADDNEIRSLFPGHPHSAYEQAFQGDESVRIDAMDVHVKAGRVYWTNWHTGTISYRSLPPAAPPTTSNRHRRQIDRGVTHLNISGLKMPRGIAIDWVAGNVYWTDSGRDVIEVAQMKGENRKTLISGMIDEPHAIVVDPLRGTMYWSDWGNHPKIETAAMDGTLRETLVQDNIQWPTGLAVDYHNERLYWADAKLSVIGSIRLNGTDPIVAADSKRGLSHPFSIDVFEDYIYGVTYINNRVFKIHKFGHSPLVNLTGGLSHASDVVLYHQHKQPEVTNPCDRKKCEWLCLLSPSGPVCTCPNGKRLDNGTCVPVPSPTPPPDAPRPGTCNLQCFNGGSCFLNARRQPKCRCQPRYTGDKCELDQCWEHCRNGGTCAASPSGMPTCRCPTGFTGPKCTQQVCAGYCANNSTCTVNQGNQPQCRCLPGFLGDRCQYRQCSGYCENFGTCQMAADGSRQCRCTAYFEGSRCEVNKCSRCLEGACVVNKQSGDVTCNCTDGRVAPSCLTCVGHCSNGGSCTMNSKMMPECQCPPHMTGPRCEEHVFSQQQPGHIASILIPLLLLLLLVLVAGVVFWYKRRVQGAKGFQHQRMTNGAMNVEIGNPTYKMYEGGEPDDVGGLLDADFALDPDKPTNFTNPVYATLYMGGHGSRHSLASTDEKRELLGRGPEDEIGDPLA
UniProt Q96II8: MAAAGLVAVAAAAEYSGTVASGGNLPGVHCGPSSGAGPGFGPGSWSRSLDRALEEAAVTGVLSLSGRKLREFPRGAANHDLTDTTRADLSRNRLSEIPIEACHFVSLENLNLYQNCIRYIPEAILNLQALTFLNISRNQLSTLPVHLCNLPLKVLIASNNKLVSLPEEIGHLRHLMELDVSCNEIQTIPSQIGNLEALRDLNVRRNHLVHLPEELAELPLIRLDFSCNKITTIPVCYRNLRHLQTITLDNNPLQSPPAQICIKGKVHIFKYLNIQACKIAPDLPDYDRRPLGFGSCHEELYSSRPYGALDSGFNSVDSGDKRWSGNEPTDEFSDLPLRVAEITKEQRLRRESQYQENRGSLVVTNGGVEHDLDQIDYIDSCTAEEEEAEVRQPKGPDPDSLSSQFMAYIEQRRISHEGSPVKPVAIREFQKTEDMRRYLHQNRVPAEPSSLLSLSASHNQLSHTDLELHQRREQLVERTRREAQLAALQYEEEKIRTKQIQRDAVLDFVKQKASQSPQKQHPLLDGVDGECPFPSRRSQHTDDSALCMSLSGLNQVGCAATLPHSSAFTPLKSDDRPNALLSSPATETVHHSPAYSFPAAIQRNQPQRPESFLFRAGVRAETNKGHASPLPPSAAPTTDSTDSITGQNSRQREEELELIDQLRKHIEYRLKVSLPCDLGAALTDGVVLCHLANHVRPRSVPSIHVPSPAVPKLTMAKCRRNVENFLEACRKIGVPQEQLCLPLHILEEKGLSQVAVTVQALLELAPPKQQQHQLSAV
UniProt P09382, whole entry, looked up: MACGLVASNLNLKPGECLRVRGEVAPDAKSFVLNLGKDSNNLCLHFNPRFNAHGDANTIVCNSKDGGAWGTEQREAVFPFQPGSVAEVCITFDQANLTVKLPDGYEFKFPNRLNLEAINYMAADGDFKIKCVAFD
UniProt Q7L5N7: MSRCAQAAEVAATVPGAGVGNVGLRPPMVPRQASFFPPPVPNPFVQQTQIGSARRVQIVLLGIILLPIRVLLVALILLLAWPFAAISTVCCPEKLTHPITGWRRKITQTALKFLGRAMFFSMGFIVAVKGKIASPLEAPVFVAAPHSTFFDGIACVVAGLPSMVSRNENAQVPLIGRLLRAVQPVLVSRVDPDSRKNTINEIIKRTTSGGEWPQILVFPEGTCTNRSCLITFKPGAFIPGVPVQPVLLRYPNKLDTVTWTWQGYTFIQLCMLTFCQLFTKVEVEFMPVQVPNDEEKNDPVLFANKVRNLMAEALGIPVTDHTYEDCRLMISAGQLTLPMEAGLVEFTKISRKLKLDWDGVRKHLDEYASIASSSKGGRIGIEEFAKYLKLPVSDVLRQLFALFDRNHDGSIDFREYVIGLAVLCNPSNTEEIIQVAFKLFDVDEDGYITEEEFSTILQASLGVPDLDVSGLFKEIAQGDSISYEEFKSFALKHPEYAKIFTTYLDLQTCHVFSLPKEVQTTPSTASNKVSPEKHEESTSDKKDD
UniProt Q3MHD2: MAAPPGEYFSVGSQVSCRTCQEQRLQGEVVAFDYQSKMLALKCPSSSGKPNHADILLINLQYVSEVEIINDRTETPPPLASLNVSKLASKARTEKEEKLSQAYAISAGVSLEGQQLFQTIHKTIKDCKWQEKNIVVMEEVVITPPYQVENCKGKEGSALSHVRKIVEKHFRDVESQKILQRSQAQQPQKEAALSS
UniProt P48059, whole entry, looked up: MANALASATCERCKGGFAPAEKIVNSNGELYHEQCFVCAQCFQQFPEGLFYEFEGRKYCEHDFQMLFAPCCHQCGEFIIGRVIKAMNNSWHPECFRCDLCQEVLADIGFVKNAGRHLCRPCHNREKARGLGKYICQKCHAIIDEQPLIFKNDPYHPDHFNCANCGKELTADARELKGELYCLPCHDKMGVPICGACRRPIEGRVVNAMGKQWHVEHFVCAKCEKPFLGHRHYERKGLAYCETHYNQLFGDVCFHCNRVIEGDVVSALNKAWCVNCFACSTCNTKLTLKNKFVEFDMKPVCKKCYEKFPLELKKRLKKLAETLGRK

Compound: Cc1cc(ccc1-c1ccccc1)C(=O)N1CCCN(CC1)C(=O)CCl [compound 10]
Assay: probe-labelled cysteine peptide fold change vs DMSO (competition) (log2 fold change); higher = less target engagement (more negative = stronger competition)
Conditions: THP-1, incubation time: 4 h
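Further: competitive profiling in live THP-1 cells: cysteine peptides tagged with an iodoacetamide desthiobiotin (IA-DTB) probe, intensity after compound treatment relative to DMSO-treated cells.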

| Target | probe-labelled cysteine peptide fold change (10 µM) | probe-labelled cysteine peptide fold change (50 µM) |
| --- | --- | --- |
| LRP1_Q07954_3021_GGDPHSCK (UniProt Q07954) | -0.193 | -0.308 |
| LTN1_O94822_237_LLCLLPDNELDSLEEK (UniProt O94822) | 0.119 | 0.118 |
| LRCH3_Q96II8_689_VSLPCDLGAALTDGVVLCHLANHVRPR (UniProt Q96II8) | 0.176 | -0.433 |
| LRPPRC_P42704_113_VFNDTCR (UniProt P42704) | -0.111 | -0.0837 |
| LGALS9_O00182_316_GQSFSVWILCEAHCLK (UniProt O00182) | -0.332 | 0.0163 |
| LGALSL_Q3ZCW2_41_LIVPFCGHIK (UniProt Q3ZCW2) | -0.185 | -0.331 |
| LTN1_O94822_91_AMQEFGTMCTER (UniProt O94822) | -0.0373 | 0.133 |
| LGALS1_P09382_3_ACGLVASNLNLKPGECLR (UniProt P09382) | -0.0881 | -0.371 |
| LRCH3_Q96II8_277_YLNIQACK (UniProt Q96II8) | -0.16 | 0.0732 |
| LIPA_P38571_209_MFFALGPVASVAFCTSPMAK (UniProt P38571) | -0.183 | 0.199 |
| LRP1_Q07954_2741_FCSEAQFECQNHR (UniProt Q07954) | 0.101 | 0.282 |
| LRRC14_Q15048_71_ELVHTWPFPLLSFQQLLQECAHCSR (UniProt Q15048) | 0.0373 | -0.0707 |
| LENG8_Q96PV6_695_ADPCVAHALALR (UniProt Q96PV6) | -0.0426 | 0.134 |
| LIMD1_Q9UGP4_148_HGSQDCGSR (UniProt Q9UGP4) | 0.145 | -0.749 |
| LIMK1_P53667_49_IYDGQYLQALNADWHADCFR (UniProt P53667) | 0.17 | 0.0155 |
| LRRC42_Q9Y546_212_DNCLSDAGVR (UniProt Q9Y546) | -0.203 | -0.12 |
| LRR1_Q96L50_220_KLPATIGDLIHLQELNLNDNHLESFSVALCHSTLQK (UniProt Q96L50) | 0.2 | -0.439 |
| LPCAT2_Q7L5N7_326_NLMAEALGIPVTDHTYEDCR (UniProt Q7L5N7) | -0.16 | -0.0104 |
| LPCAT2_Q7L5N7_4_CAQAAEVAATVPGAGVGNVGLRPPMVPR (UniProt Q7L5N7) | -0.251 | -0.725 |
| LGALS1_P09382_17_ACGLVASNLNLKPGECLR (UniProt P09382) | 0.184 | 0.0681 |

| Target | probe-labelled cysteine peptide fold change (10 µM) | probe-labelled cysteine peptide fold change (50 µM) |
| --- | --- | --- |
| LMAN2_Q12907_107_EGSIWNHQPCFLK (UniProt Q12907) | -0.057 | 0.076 |
| LTN1_O94822_595_KKPLEDLVCK (UniProt O94822) | -0.0186 | 0.0933 |
| LRMP_Q12912_264_LLESLTPLCEDDNQAQEIIK (UniProt Q12912) | -0.074 | 0.305 |
| LSM12_Q3MHD2_151_NIVVMEEVVITPPYQVENCK (UniProt Q3MHD2) | 0.101 | 0.104 |
| LRRC40_Q9H9A6_264_FLPEFPSCSLLK (UniProt Q9H9A6) | -0.145 | -0.0617 |
| LIMA1_Q9UHB6_316_ENVPPGPEVCITHQEGEK (UniProt Q9UHB6) | -0.276 | -0.124 |
| LMAN1_P49257_230_NDYEFCAK (UniProt P49257) | 0.239 | 0.703 |
| LPCAT4_Q643R3_206_WPQVLFFPEGTCSNKK (UniProt Q643R3) | -0.0653 | -0.0994 |
| LRCH1_Q9Y2L9_251_VLVIPICFR (UniProt Q9Y2L9) | -0.064 | -0.161 |
| LIMS1_P48059_240_GLAYCETHYNQLFGDVCFHCNR (UniProt P48059) | 0.0739 | 0.163 |
| LIN9_Q5TKA1_435_RCEEEAQEIVR (UniProt Q5TKA1) | -0.273 | -0.168 |
| LPP_Q93052_524_SLDGIPFTVDAGGLIHCIEDFHKK (UniProt Q93052) | -0.0384 | -0.452 |
| LRCH4_O75427_283_GSALGDLAPSRPPSFSPCPAEDLFPGHR (UniProt O75427) | -1.16 | -1.33 |
| LRPPRC_P42704_952_LFECDR (UniProt P42704) | 0.147 | 0.559 |
| LRPPRC_P42704_130_SCGSLLPELK (UniProt P42704) | 0.114 | 0.459 |
| LIG4_P49917_593_EWHECMTLDDLEQLR (UniProt P49917) | -0.111 | -0.0339 |
| LRRC47_Q8N1G4_249_MVSGCQTR (UniProt Q8N1G4) | -0.251 | -0.184 |
| LST1_O00453_90_ADYACIAENKPT (UniProt O00453) | -0.403 | -0.306 |
| LSP1_P33241_109_QQHEGAQGALDSGEPPQCR (UniProt P33241) | -0.117 | -0.236 |

Part of the list above, reformatted:
Target | probe-labelled cysteine peptide fold change (10 µM) | probe-labelled cysteine peptide fold change (50 µM)
LRMP_Q12912_264_LLESLTPLCEDDNQAQEIIK (UniProt Q12912) | -0.074 | 0.305
LSM12_Q3MHD2_151_NIVVMEEVVITPPYQVENCK (UniProt Q3MHD2) | 0.101 | 0.104
